According to article PMC5006980:
Positions count from the first letter of the chain named. Names may count otherwise. No constants are given. Whether binding was seen depends on the method and setting. For part of these data: Binding can be weak; no strength is given. Tags and fused reporters may be left off the sequences shown.

B1: full-length rat PLK2 T236E (constitutively active kinase domain) fused to the GAL4 activation domain (enzyme, UniProt Q9R012 1-682)
chain: MELLRTITYQPAAGTKMCEQALGKACGGDSKKKRPQQPSEDGQSQAQVTPAAPHHHHHHSHSGPEISRIIVDPTTGKRYCRGKVLGKGGFAKCYEMTDLTNNKVYAAKIIPHSRVAKPHQREKIDKEIELHRILHHKHVVQFYHYFEDKENIYILLEYCSRRSMAHILKARKVLTEPEVRYYLRQIVSGLKYLHEQEILHRDLKLGNFFINEAMELKVGDFGLAARLEPLEHRRREICGTPNYLSPEVLNKQGHGCESDIWALGCVMYTMLLGRPPFETTNLKETYRCIREARYTMPSSLLAPAKHLIASMLSKNPEDRPSLDDIIRHDFFLQGFTPDRLSSSCCHTVPDFHLSSPAKNFFKKAAAALFGGKKDKARYNDTHNKVSKEDEDIYKLRHDLKKTSITQQPSKHRTDEELQPPPTTFAKSGTSAVENKQQIGDAIRMIVRGTLGSCSSSSECLEDSTMGSVADTVARVLRGCLENMPEADCIPKEQLSTSFQWVTKWVDYSNKYGFGYQLSDHTVGVLFNNGAHMSLLPDKKTVHYYAELGQCSVFPATDAPEQFISQVTVLKYFSHYMEENLMDGGDLPSVTDIRRPRLYLLQWLKSDKALMMLFNDGTFQVNFYHDHTKIIICNQNEEYLLTYINEDRISTTFRLTTLLMSGCSLELKHRMEYALNMLLQRCN
B2: full-length rat PLK2 K108M (inactive kinase domain) fused to the GAL4 activation domain (enzyme, UniProt Q9R012 1-682)
chain: B1 chain with K108M, E236T
B3: full-length rat PLK2 W504F (inactive polo-box domain) fused to the GAL4 activation domain (enzyme, UniProt Q9R012 1-682)
chain: B1 chain with E236T, W504F

Target: full-length PFV Gag P226A fused to the GAL4 DNA binding domain (prototype foamy virus (PFV))
Assay: two-hybrid; directed Y2H, Matchmaker System, S. cerevisiae AH109; baits fused to GAL4 DB, preys fused to GAL4 AD; growth on quadruple-dropout (-Leu/-Trp/-Ade/-His) agar after two to four days at 30°C

| Binder | binding |
| --- | --- |
| B1 | no binding |
| B2 | no binding |
| B3 | no binding |

Target: full-length PFV Gag S224A fused to the GAL4 DNA binding domain (prototype foamy virus (PFV))
Assay: as above

| Binder | binding |
| --- | --- |
| B1 | no binding |
| B2 | no binding |
| B3 | no binding |

Target: full-length PFV Gag T225A fused to the GAL4 DNA binding domain (prototype foamy virus (PFV))
Assay: as above

| Binder | binding |
| --- | --- |
| B1 | no binding |
| B2 | no binding |
| B3 | no binding |

Target: full-length PFV Gag T225D fused to the GAL4 DNA binding domain (prototype foamy virus (PFV))
Assay: as above

| Binder | binding |
| --- | --- |
| B1 | no binding |
| B2 | no binding |
| B3 | no binding |

Target: full-length PFV Gag T225E fused to the GAL4 DNA binding domain (prototype foamy virus (PFV))
Assay: as above

| Binder | binding |
| --- | --- |
| B1 | no binding |
| B2 | no binding |
| B3 | no binding |

Target: full-length PFV Gag fused to the N-terminus of the GAL4 DNA binding domain (Gag-DB) (prototype foamy virus (PFV))
Assay: as above

| Binder | binding |
| --- | --- |
| B1 | binds |
| B2 | no binding |
| B3 | no binding |
